Changes are numbered by the printed parent chain. No constants are given. Whether binding was seen depends on the method and setting. Binding can be weak; no strength is given.
Tests used:
[1] = target: T1, Full-length Cdc37 carrying the phosphomimetic mutation Y298E (human) (UniProt Q16543); assay: ITC; bRaf (35-90 μM, syringe) titrated into Cdc37 variants (~3-8 μM, cell); 20 °C; 20 mM Tris, 100 mM NaCl, 0.5 mM EDTA, 1 mM TCEP; single binding site model; both purified
T1 sequence: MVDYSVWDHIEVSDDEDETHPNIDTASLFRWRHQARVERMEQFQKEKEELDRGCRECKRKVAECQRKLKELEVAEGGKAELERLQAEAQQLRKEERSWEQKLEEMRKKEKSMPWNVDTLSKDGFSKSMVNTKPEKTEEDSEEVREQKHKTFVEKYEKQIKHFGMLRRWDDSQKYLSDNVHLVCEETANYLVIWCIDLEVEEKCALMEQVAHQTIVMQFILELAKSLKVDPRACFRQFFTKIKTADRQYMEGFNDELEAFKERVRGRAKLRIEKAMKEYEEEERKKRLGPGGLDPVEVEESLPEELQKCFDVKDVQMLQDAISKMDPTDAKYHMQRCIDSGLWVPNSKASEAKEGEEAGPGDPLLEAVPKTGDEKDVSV

Protein sequences, listed by entry. Tags and fused reporters are not part of them. Lines headed by an entry give the natural chain unless they say otherwise; changes in a name come on top.
UniProt P15056: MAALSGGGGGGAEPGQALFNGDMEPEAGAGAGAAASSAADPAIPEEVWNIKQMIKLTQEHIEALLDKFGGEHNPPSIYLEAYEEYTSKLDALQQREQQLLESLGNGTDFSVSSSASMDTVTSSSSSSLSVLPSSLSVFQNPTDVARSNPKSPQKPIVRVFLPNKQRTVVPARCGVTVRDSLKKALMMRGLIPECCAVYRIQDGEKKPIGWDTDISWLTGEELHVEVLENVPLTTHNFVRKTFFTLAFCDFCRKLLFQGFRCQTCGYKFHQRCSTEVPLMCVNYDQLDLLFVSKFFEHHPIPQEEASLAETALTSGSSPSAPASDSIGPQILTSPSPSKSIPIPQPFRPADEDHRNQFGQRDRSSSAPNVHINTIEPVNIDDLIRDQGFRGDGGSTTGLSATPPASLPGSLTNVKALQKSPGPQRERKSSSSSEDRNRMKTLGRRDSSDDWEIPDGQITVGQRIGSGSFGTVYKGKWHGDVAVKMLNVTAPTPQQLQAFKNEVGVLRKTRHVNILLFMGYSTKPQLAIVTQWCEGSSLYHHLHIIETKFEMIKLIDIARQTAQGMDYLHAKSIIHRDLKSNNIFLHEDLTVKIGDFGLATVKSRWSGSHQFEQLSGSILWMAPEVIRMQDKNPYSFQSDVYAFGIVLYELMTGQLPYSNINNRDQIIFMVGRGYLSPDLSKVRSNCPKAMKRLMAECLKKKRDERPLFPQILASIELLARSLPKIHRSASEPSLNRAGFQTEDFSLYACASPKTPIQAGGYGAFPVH

[2] = target: T2, Full-length human Cdc37 (human) (UniProt Q16543); assay: as above
T2 sequence: T1 sequence with E298Y

[3] = target: T3, Cdc37 single phosphomimetic mutant Y4E (human) (UniProt Q16543); assay: as above
T3 sequence: T1 sequence with Y4E, E298Y

[4] = target: T4, Cdc37 double-phosphomimetic mutant Y4E/Y298E (human) (UniProt Q16543); assay: as above
T4 sequence: T1 sequence with Y4E

[5] = target: T1, Full-length Cdc37 carrying the phosphomimetic mutation Y298E (human); assay: SEC; analytical, Biorad Enrich SEC 650, 4 °C; 20 mM Tris pH 7.5, 100 mM NaCl, 0.5 mM EDTA, 2 mM DTT; binary mixtures 1:1 and ternary mixtures Hsp90:Cdc37:bRaf 2:1:1, incubated 15 min at 4 °C; both purified
[6] = target: T2, Full-length human Cdc37 (human); assay: as above
[7] = target: T3, Cdc37 single phosphomimetic mutant Y4E (human); assay: as above
[8] = target: T4, Cdc37 double-phosphomimetic mutant Y4E/Y298E (human); assay: as above

binding [1]: binds
binding [2]: binds
binding [3]: binds
binding [4]: binds
binding [5]: binds
binding [6]: binds
binding [7]: binds
binding [8]: binds
Substance: Catalytic domain of bRaf (from UniProt P15056) (domain or fragment)

From PMC5772613, “Phosphorylation induced cochaperone unfolding promotes kinase recruitment and client class-specific Hsp90 phosphorylation” (Nature Communications, 2018)
